Test results as given in publication PMC7113852 (Antiviral Research, 2018).
Like-named read-outs stand apart in the source and are kept apart here.

Tested on: EV1
Test: microbe, parasite or virus in culture
Type: cell-based, Echovirus 1
Settings: Enterovirus B, RPE

Q: For `CNCCC(Oc1ccc(C(F)(F)F)cc1)c1ccccc1` (centres unmarked) [Fluoxatine], which EC50 (read-out: EC50 CTG) is on record?
A: 340 nM

Q: What about the EC50 (read-out: EC50 CTxG) of the same compound?
A: 720 nM
